Values from PubChem BioAssay AID1508588 (Peter MacCallum Cancer Centre, 2020).
Test: 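Genome-wide search for knock-downs that heighten vemurafenib action in melanoma cells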 (primary screen). Cell system: human WM266.4 melanoma cells (BRAF V600 mutant). Reagent: siRNA pool against human genes, 40 nM. Timing: 96 h from transfection to read-out. Treatment: vemurafenib 300 nM (about IC25), added 48 h after transfection, for 48 h; comparison arm got DMSO vehicle only. Read-out: 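Ratios to non-targeting siRNA for cell gain, counted as DAPI nuclei after minus before drug and averaged over two replicates, and for absorbance-read medium lactate per cell; both binned into fold-change classes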. Direction: cell gain with vemurafenib: higher = more cell gain than with non-targeting siRNA; lactate per cell with vemurafenib: higher = more lactate made per cell. Hit rule: 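a knock-down counts as enhancing when its fold-change classes with vehicle and with vemurafenib, taken together, show a stronger drug effect on cell gain or lactate per cell; exact class pairs not stated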. Calls: active = enhances vemurafenib effect; inactive = no enhancement seen.
Shown is one part, drawn at random, of about 18,000 deposited reagents. 790 of them (4.4%) count as active. 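Calls rest on a combination of fold-change classes in drug and vehicle arms, not all shown here.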 A number with no mark means an inactive call. Reagent sequences are not shown.

no.	target gene	cell gain with vemurafenib	lactate per cell with vemurafenib
1	UGT2B11	0.54	1.38
2	PTPDC1	0.58	1.02
3	CYP2A6	0.75	1.14
4	AFF1	0.24	1
5	NOCT	0.39	0
6	KHDRBS1	0.9	0.66
7	DENND1C	0.61	1.7
8	IGLL1	0.22	2.58
9	CDK9	0.68	0.62
10	SAT2	0.91	0.88
11	STK4	0.84	0.83
12	TAS2R1	0.53	1.19
13	AMBRA1	0.24	1.9
14	PIWIL3	0.46	1.9
15	LOC653978 (retired record)	0.28	1.25
16	TNK1	0.57	1.74
17	TBX19	0.93	0.8
18	NRBP2	0.66	1.44
19	MYCT1	0.28	1.3
20	SORBS3	0.51	0.21
21	KIAA0825	0.78	1
22	FAM187B	0.73	0.88
23	ACKR5	0.31	0.22
24	LY6K	0.74	0.71
25	C2orf69	0.32	1.64
26	TMEM134	0.5	2.16
27	EHBP1	0.85	0.66
28	ACTL9	0.48	1.55
29	EEFSEC	0.77	0.81
30	HHIP	0.19	1.72
31	RUNX1T1	0.4	2.44
32	ACP2	0.47 (active)	0.49
33	MMP17	0.46	1.62
34	ZKSCAN4	0.99 (active)	0.25

5 entries from above, arranged by “lactate per cell with vemurafenib”, ascending:
target gene	cell gain with vemurafenib	lactate per cell with vemurafenib
ACKR5	0.31	0.22
LY6K	0.74	0.71
FAM187B	0.73	0.88
KIAA0825	0.78	1
C2orf69	0.32	1.64
